Sequences of proteins named here, by UniProt entry; tags and fusion partners are left off.
UniProt P62195: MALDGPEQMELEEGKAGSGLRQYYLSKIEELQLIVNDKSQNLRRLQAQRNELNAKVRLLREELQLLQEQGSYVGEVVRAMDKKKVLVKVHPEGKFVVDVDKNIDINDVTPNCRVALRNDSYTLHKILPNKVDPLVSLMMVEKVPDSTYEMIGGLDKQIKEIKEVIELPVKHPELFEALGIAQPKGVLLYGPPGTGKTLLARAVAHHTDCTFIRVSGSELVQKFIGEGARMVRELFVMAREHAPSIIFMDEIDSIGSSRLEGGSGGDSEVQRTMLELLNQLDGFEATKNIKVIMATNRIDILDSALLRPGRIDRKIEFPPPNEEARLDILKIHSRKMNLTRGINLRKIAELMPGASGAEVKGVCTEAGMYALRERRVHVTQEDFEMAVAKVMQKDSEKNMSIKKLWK
UniProt O95071: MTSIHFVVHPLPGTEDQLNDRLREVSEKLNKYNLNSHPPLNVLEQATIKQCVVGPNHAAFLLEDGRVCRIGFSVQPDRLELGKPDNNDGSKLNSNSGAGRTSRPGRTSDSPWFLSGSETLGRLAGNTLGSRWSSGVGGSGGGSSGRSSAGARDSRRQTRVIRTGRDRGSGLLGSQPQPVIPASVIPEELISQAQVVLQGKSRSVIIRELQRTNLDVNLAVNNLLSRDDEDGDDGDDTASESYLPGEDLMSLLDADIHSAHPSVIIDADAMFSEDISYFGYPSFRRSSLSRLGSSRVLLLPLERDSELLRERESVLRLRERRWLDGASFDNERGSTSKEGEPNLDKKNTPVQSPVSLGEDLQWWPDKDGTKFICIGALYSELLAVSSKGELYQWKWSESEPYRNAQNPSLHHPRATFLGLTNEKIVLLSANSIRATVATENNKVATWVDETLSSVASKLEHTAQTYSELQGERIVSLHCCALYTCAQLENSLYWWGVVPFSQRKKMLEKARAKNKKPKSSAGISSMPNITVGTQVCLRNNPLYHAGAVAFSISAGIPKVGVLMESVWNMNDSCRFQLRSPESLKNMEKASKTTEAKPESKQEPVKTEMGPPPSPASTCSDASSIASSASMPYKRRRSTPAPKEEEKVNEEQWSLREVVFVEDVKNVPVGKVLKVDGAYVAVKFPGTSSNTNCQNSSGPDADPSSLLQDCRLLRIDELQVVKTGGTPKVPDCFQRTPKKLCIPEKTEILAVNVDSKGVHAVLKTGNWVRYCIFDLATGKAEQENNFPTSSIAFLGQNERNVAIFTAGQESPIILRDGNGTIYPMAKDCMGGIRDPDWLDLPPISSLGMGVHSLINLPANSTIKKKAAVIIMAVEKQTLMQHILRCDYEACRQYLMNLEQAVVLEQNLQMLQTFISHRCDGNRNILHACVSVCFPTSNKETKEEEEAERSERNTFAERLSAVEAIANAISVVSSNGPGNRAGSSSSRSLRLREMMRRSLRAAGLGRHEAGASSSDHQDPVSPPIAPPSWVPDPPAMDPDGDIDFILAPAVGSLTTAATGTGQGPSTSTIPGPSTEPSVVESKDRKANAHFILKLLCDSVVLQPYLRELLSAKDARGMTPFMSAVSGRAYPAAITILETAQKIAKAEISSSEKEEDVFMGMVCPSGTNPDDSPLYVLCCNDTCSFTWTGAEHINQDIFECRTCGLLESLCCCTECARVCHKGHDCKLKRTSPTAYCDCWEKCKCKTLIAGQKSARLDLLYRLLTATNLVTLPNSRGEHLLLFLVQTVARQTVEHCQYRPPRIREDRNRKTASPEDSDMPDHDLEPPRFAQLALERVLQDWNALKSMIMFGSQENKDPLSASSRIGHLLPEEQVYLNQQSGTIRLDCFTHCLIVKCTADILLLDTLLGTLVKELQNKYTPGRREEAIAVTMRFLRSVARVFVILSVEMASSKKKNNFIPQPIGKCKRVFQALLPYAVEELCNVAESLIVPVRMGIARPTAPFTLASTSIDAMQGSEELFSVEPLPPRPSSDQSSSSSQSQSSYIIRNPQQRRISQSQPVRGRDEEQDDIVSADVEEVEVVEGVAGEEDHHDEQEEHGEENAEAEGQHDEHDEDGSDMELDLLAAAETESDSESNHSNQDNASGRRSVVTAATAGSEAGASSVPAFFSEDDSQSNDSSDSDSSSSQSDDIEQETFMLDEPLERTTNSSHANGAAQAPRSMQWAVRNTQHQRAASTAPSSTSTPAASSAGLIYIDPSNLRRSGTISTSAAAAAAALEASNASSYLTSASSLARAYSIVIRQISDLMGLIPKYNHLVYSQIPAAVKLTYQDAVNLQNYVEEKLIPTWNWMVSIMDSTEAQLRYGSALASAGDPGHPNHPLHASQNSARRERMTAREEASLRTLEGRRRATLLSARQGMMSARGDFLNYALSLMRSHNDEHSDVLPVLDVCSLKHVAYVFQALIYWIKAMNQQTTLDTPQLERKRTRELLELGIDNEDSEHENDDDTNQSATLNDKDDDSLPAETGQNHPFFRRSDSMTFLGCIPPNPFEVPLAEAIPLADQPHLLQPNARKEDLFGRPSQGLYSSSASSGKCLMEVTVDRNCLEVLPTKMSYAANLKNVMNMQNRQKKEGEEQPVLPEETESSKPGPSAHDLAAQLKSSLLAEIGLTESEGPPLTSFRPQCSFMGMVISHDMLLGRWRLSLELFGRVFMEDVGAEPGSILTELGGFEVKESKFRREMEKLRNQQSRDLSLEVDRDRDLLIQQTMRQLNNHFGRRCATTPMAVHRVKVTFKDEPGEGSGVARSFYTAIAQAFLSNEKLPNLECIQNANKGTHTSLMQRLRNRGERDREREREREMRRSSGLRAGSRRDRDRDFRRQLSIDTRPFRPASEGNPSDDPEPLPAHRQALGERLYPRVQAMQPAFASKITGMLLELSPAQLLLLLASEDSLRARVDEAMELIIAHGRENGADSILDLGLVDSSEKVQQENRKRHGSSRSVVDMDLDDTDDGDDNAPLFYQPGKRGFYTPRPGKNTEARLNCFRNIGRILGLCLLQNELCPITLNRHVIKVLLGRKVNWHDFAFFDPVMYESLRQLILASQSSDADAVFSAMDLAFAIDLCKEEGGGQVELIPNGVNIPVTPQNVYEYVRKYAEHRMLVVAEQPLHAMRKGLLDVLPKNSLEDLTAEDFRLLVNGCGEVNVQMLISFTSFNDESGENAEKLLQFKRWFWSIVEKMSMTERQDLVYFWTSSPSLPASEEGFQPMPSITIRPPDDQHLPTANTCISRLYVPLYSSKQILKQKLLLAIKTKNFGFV

According to paper PMC9879932:

T1: GFP-USP49Long (pEGFP-USP49Long) (UniProt Q70CQ1)
T1 sequence: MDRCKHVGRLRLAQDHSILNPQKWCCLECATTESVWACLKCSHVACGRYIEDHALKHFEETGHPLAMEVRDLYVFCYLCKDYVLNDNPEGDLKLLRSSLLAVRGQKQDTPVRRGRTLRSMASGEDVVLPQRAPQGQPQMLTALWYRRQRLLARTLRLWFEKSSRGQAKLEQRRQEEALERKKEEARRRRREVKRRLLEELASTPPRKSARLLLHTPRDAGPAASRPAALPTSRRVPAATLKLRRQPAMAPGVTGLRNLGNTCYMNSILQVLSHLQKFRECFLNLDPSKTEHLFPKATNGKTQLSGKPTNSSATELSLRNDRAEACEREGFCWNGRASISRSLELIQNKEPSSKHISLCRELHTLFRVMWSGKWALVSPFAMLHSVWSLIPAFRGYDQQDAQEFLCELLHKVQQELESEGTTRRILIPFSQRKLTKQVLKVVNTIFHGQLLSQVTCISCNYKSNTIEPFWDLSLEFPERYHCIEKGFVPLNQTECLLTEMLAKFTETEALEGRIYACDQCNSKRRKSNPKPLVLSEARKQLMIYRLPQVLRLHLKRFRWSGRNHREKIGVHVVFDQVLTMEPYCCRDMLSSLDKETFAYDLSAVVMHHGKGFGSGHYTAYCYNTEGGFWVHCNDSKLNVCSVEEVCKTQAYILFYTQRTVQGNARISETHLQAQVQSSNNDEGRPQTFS

B1: RPN1 (endogenous) (protein, UniProt P04843 24-607)
chain: ASSEAPPLINEDVKRTVDLSSHLAKVTAEVVLAHLGGGSTSRATSFLLALEPELEARLAHLGVQVKGEDEEENNLEVRETKIKGKSGRFFTVKLPVALDPGAKISVIVETVYTHVLHPYPTQITQSEKQFVVFEGNHYFYSPYPTKTQTMRVKLASRNVESYTKLGNPTRSEDLLDYGPFRDVPAYSQDTFKVHYENNSPFLTITSMTRVIEVSHWGNIAVEENVDLKHTGAVLKGPFSRYDYQRQPDSGISSIRSFKTILPAAAQDVYYRDEIGNVSTSHLLILDDSVEMEIRPRFPLFGGWKTHYIVGYNLPSYEYLYNLGDQYALKMRFVDHVFDEQVIDSLTVKIILPEGAKNIEIDSPYEISRAPDELHYTYLDTFGRPVIVAYKKNLVEQHIQDIVVHYTFNKVLMLQEPLLVVAAFYILFFTVIIYVRLDFSITKDPAAEARMKVACITEQVLTLVNKRIGLYRHFDETVNRYKQSRDISTLNSGKKSLETEHKALTSEIALLQSRLKTEGSDLCDRVSEMQKLDAQVKELVLKSAVEAERLVAGKLKKDTYIENEKLISGKRQELVTKIDHILDAL
B2: CETN3 (endogenous) (protein, UniProt O15182 1-167)
chain: MSLALRSELVVDKTKRKKRRELSEEQKQEIKDAFELFDTDKDEAIDYHELKVAMRALGFDVKKADVLKILKDYDREATGKITFEDFNEVVTDWILERDPHEEILKAFKLFDDDDSGKISLRNLRRVARELGENMSDEELRAMIEEFDKDGDGEINQEEFIAIMTGDI
B3: USP44 (endogenous) (enzyme, UniProt Q9H0E7 1-712)
chain: MLAMDTCKHVGQLQLAQDHSSLNPQKWHCVDCNTTESIWACLSCSHVACGRYIEEHALKHFQESSHPVALEVNEMYVFCYLCDDYVLNDNTTGDLKLLRRTLSAIKSQNYHCTTRSGRFLRSMGTGDDSYFLHDGAQSLLQSEDQLYTALWHRRRILMGKIFRTWFEQSPIGRKKQEEPFQEKIVVKREVKKRRQELEYQVKAELESMPPRKSLRLQGLAQSTIIEIVSVQVPAQTPASPAKDKVLSTSENEISQKVSDSSVKRRPIVTPGVTGLRNLGNTCYMNSVLQVLSHLLIFRQCFLKLDLNQWLAMTASEKTRSCKHPPVTDTVVYQMNECQEKDTGFVCSRQSSLSSGLSGGASKGRKMELIQPKEPTSQYISLCHELHTLFQVMWSGKWALVSPFAMLHSVWRLIPAFRGYAQQDAQEFLCELLDKIQRELETTGTSLPALIPTSQRKLIKQVLNVVNNIFHGQLLSQVTCLACDNKSNTIEPFWDLSLEFPERYQCSGKDIASQPCLVTEMLAKFTETEALEGKIYVCDQCNSKRRRFSSKPVVLTEAQKQLMICHLPQVLRLHLKRFRWSGRNNREKIGVHVGFEEILNMEPYCCRETLKSLRPECFIYDLSAVVMHHGKGFGSGHYTAYCYNSEGGFWVHCNDSKLSMCTMDEVCKAQAYILFYTQRVTENGHSKLLPPELLLGSQHPNEDADTSSNEILS
B4: PPM1G (endogenous) (enzyme, UniProt O15355 1-546)
chain: MGAYLSQPNTVKCSGDGVGAPRLPLPYGFSAMQGWRVSMEDAHNCIPELDSETAMFSVYDGHGGEEVALYCAKYLPDIIKDQKAYKEGKLQKALEDAFLAIDAKLTTEEVIKELAQIAGRPTEDEDEKEKVADEDDVDNEEAALLHEEATMTIEELLTRYGQNCHKGPPHSKSGGGTGEEPGSQGLNGEAGPEDSTRETPSQENGPTAKAYTGFSSNSERGTEAGQVGEPGIPTGEAGPSCSSASDKLPRVAKSKFFEDSEDESDEAEEEEEDSEECSEEEDGYSSEEAENEEDEDDTEEAEEDDEEEEEEMMVPGMEGKEEPGSDSGTTAVVALIRGKQLIVANAGDSRCVVSEAGKALDMSYDHKPEDEVELARIKNAGGKVTMDGRVNGGLNLSRAIGDHFYKRNKNLPPEEQMISALPDIKVLTLTDDHEFMVIACDGIWNVMSSQEVVDFIQSKISQRDENGELRLLSSIVEELLDQCLAPDTSGDGTGCDNMTCIIICFKPRNTAELQPESGKRKLEEVLSTEGAEENGNSDKKKKAKRD

Target: T1, GFP-USP49Long (pEGFP-USP49Long)
Test: affinity purification with mass spectrometry; HEK-293T transfected with pEGFP-USP49Long, pEGFP-USP49Short or pEGFP empty; lysed in co-IP buffer (150 mM NaCl, 20 mM Tris-HCl pH 7.4, 1% NP-40, 1 mM MgCl2); anti-GFP-conjugated Dynabeads 1 h at 4 C; nano-LC-MS, peptide counting

binding, binds:
PRS8 (endogenous) (from UniProt P62195 1-406)
UBR5 (endogenous) (from UniProt O95071 1-2799)
B1
B2
B3
B4

No constants are given. Whether binding was seen depends on the method and setting. Binding seen in cells or lysates may run through a third protein. Here binding means that the protein was enriched with, or labelled near, the bait; the list need not be complete. Tags and fused reporters may be left off the sequences shown.
